AC50 data for 42 molecules are collected here from PubChem BioAssay AID493014 (National Center for Advancing Translational Sciences (NCATS), 2011).

Broadly, the AC50 is the concentration giving half of the maximal activity seen.

This experiment can be described thus: qHTS Assay to Find Inhibitors of Chronic Active B-Cell Receptor Signaling. Particulars: ABC-DLBCL IkBa-CBG/CBR reporter, luminescence ratio (green luciferase fused to IkBa over red control in TMD8 lymphoma cells), 4 h. An outline of the steps: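 TMD8 ABC-DLBCL cells carrying doxycycline-inducible green luciferase fused to IkappaBalpha plus unfused red luciferase were exposed to compounds (up to 46 uM) for 4 hrs at 37C. Activity came from the overlap-corrected green/red luminescence ratio.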
For orientation: qHTS replaces the single test concentration by a dilution series.

Where [1] appears, read: measured here: CBR red luminescence, cell number.
Where [2] appears, read: measured here: IkBa-CBG green luminescence.

SMILES strings stand for the structures. The list shows a part of the results. The main result of the screen is listed elsewhere. These columns were measured beside it and carry no call. Compounds called inactive in the main read-out are mostly missing here. Words in brackets tell the shape of the fitted curve; partial curves, single points and poor fits give uncertain potencies.

Turning to `Cn1ncc2c(Nc3cccc(C#N)c3)ncnc21`, under setting [1], the AC50 was 11.2 µM [falling, single point]. As to `Nn1c(SCc2ccc(F)cc2)nnc1-c1ccccn1`, under setting [1], the concentration at half-maximal activity (AC50) was 7.94 µM [falling, partial curve, poor fit]. The same measure, in the same setting: the figure for `CCCCNC(=O)Nc1nc2ccc(CC)cc2s1` is 2 µM [rising, full curve, poor fit]; for `COc1ccc(-c2onc(C)c2-c2ccc(C(=O)OC(C)C)o2)c(O)c1` it is 20.6 µM [falling, partial curve, poor fit]. Take `COc1ccccc1N(CC(=O)NC1CCCC1)S(=O)(=O)c1ccc(C)cc1`: the AC50 under setting [1] is 35.5 µM [falling, single point]. For `COc1cc(C(=O)Nc2cc(C(F)(F)F)ccc2-n2cncn2)cc(OC)c1OC`, the half-maximal activity concentration (AC50) under setting [1] is 6.31 µM [rising, single point]. For `CCC(C)NCCCCOc1ccc(Cl)cc1C` (stereo not drawn), the concentration at half-maximal activity (AC50) under setting [1] was 29.1 µM [falling, single point]. Same read-out and setting: then `Oc1ccccc1-c1nc(NCC2CCCO2)c2ccccc2n1` (stereo not drawn), with 18.4 µM [falling, partial curve, poor fit]. Same read-out and setting: then `CC(=O)Nc1ccc(/C(C)=N/Nc2nc(Nc3cccc4ccccc34)nc(N3CCOCC3)n2)cc1`, with 20.6 µM [falling, partial curve]; and `O=C(Nc1ccc2oc(-c3ccccc3)nc2c1)c1cc(-n2cnnc2)ccc1Cl`, with 4.47 µM [falling, partial curve]; and `O=C(O)c1cccc(OCc2ccccc2Cl)c1`, with 8.91 µM [falling, partial curve, poor fit]. Regarding `O=C(CCC1COc2ccccc2O1)Nc1ccc(Cl)cn1` (stereo not drawn), the concentration at half-maximal activity (AC50) under setting [1] was 29.1 µM [falling, single point]. Turning to `COc1ccc(/C=N/OCC(=O)N2CCCC2)c(OC)c1`, the half-maximal activity concentration (AC50) under setting [1] is 35.5 µM [falling, single point].

With `CCCNC(=O)c1ccc2c(=O)c(O)c(-c3ccsc3)[nH]c2c1`, the half-maximal activity concentration (AC50) under setting [1] is 3.16 µM [rising, partial curve, poor fit]. On to `COc1cc(OC)cc(C(=O)Nc2nc3ccc(S(C)(=O)=O)cc3s2)c1`, for which the half-maximal activity concentration (AC50) under setting [1] is 7.08 µM [falling, full curve]. Regarding `CCOc1cccc(OCCOCCN2CCCC2)c1`, the AC50 is, setting by setting: under setting [1], 18.4 µM [falling, single point]; under setting [2], 23.1 µM [rising, partial curve, poor fit]. Take `COc1ccc([N+](=O)[O-])cc1NC(=O)COC(=O)/C=C/c1ccco1`: the AC50 under setting [1] was 5.8 µM [rising, full curve, poor fit]. For the molecule `CCOC(=O)CNC(=O)C(NC(=O)C1CCC(C)CC1)C(C)CC` (stereo not drawn), the AC50 under setting [1] is 0.13 µM [rising, full curve, poor fit]. Consider `Cc1nonc1CN(C)C(=O)c1ccc(OC2CCN(Cc3ccccn3)CC2)cc1`, for which the concentration at half-maximal activity (AC50) under setting [1] is 4.47 µM [falling, full curve, poor fit]. Regarding `Cc1ccccc1/C=C/C12NC(=O)CN1c1ccccc1C2(C)C` (stereo not drawn), the half-maximal activity concentration (AC50) under setting [1] is 0.355 µM [rising, full curve].

Regarding `CCCCNC(=S)N/N=C/c1cc(C)ccc1C`, the AC50 under setting [1] was 25.9 µM [rising, partial curve]. As for `CCN1CCN(Cc2ccc(NC(=O)c3ccc(C)c(NC(=O)c4ccc5n[nH]nc5c4)c3)cc2C(F)(F)F)CC1`, the AC50 under setting [1] is 10 µM [falling, partial curve, poor fit].

Take `COc1ccc(Cl)cc1NC(=O)NC1CCCCC1`: under setting [1], the AC50 was 5.17 µM [rising, full curve]. With `Cc1cc(=O)n2[nH]c(-c3ccco3)nc2n1`, the AC50 under setting [1] is 5.17 µM [falling, partial curve]. Turning to `O=C(N/N=C/c1ccco1)c1[nH]ncc1Br`, the concentration at half-maximal activity (AC50) under setting [1] is 11.2 µM [falling, partial curve]. Turning to `O=C(N/N=C/c1nn(-c2ccccc2)cc1-c1ccc(Cl)cc1)c1ccncc1`, the AC50 under setting [1] is 1.12 µM [rising, full curve, poor fit].

In the case of `C/C(=N\NC(=O)c1ccc(NS(=O)(=O)c2cccs2)cc1)c1ccc2ccccc2c1`, the AC50 under setting [1] is 9.2 µM [falling, partial curve].

Turning to `COc1cc(NS(=O)(=O)c2ccc(Br)cc2)c(OC)cc1NC(=O)c1ccco1`, the concentration at half-maximal activity (AC50) under setting [2] was 7.31 µM [rising, partial curve, poor fit]. `CC1CN=C(N(Cc2ccccc2)C(=O)Nc2ccccc2)S1` (stereo not drawn): the AC50 under setting [1] is 0.517 µM [rising, full curve]. In the case of `CCCn1c(C(=O)OC)cc2c1ccn2-c1ccc(F)cc1`, the AC50 under setting [1] is 1 µM [rising, full curve]. `Cc1nn(C(C)C(=O)NCCc2cccs2)c(=O)c2nn(-c3ccccc3)c(C)c12` (stereo not drawn): under setting [1], the AC50 was 35.5 µM [rising, single point]. On the same count and under the same terms, the figure for `O=C(Nc1ccc([N+](=O)[O-])cc1)Nc1cnccn1` is 6.31 µM [rising, partial curve].

For `CCOC(=O)C1=C(C)Nc2nnnn2C1c1ccc(OC)c(Br)c1` (stereo not drawn), the half-maximal activity concentration (AC50) under setting [2] was 23.1 µM [falling, partial curve, poor fit].

In the case of `Cc1ccc(S(=O)(=O)N2C(=S)SCC2(C)C)cc1`, the half-maximal activity concentration (AC50) under setting [1] was 35.5 µM [rising, single point]. On the same count and under the same terms, then `O=C(NCCc1ccccc1)c1cc(=O)c2ccccc2o1`, with 35.5 µM [falling, single point]. Still for that read-out and setting: then `Cc1ccc(S(=O)(=O)N/N=C2/CC(c3ccccc3)Oc3ccccc32)cc1` (stereo not drawn), with 1.26 µM [rising, full curve, poor fit]; and `COC(=O)c1sccc1NC(=O)COc1ccc(Cl)cc1Cl`, with 0.731 µM [rising, partial curve, poor fit]; and `OCCCNc1nc(-c2ccc(Br)cc2)nnc1-c1ccc(Cl)cc1`, with 14.6 µM [falling, partial curve, poor fit]. On the same count and under the same terms, then `COc1ccc(NC(=O)c2ccc(NCC3CCCO3)c([N+](=O)[O-])c2)cc1` (stereo not drawn), with 0.708 µM [falling, full curve, poor fit]; and `CCOC(=O)Cn1nnnc1C(C(C)C)N(Cc1cccs1)Cc1cc2cc(C)ccc2[nH]c1=O` (stereo not drawn), with 32.6 µM [falling, single point]; and `Clc1ccccc1-c1nnc2sc(CCc3ccccc3)nn12`, with 0.58 µM [rising, partial curve, poor fit]. Consider `COC(=O)/C=C1\SC(=Nc2ccccc2)NC1=O`, for which, under setting [1], the AC50 was 16.4 µM [falling, single point].
